In assay [1] the target is T1, Mer2 (two-hybrid fusion) (S. cerevisiae) (UniProt P21651).
T1 sequence: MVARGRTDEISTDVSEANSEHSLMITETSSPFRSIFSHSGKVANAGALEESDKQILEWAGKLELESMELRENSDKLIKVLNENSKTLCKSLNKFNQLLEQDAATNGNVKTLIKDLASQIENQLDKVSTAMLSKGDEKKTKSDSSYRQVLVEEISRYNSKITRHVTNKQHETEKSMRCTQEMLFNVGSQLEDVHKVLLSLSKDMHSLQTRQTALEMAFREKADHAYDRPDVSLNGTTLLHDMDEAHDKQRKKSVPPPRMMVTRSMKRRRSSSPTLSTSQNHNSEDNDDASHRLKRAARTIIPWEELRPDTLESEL
The assay can be described thus: two-hybrid.

Assay [2] addresses T2, Mer2-Flag (S. cerevisiae (SK1)) (UniProt P21651).
T2 sequence: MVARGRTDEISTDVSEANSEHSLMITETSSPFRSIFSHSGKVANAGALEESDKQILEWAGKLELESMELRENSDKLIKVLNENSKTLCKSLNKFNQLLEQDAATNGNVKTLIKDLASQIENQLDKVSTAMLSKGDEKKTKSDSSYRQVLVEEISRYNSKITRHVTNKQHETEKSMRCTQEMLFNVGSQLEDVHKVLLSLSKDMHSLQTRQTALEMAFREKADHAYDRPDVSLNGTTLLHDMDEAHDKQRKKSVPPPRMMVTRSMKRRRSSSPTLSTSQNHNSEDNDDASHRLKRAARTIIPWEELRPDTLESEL
The experiment in a line: co-IP.

Assay [3] concerns the target T3, Set1 (two-hybrid fusion) (S. cerevisiae (SK1)) (UniProt P38827).
T3 sequence: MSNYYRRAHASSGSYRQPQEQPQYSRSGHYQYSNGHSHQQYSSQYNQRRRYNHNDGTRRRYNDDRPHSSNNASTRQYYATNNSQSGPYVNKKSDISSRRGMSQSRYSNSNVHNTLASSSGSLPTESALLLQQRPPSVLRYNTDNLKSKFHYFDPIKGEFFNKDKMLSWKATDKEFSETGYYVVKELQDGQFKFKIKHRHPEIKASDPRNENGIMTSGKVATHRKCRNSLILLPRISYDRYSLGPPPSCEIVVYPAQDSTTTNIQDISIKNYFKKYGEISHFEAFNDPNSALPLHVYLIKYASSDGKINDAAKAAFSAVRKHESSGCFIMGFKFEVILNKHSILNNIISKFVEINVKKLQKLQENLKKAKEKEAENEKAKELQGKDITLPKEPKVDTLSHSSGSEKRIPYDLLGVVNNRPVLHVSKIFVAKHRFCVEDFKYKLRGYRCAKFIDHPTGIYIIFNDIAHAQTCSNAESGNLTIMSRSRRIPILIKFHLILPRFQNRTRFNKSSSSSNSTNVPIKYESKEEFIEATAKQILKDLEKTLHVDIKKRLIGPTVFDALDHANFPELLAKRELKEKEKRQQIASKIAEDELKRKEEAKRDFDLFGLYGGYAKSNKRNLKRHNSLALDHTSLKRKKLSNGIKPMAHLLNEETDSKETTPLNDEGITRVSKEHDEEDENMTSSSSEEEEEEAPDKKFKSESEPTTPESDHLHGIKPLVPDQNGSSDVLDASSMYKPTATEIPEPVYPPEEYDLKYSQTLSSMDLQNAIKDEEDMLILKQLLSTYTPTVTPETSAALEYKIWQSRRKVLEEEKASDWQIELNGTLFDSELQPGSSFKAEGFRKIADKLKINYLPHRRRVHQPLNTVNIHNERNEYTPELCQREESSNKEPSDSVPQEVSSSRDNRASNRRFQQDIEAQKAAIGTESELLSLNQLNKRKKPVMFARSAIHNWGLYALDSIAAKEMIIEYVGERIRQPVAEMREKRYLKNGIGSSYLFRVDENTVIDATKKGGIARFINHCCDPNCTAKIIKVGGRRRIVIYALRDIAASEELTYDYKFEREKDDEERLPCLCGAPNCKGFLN
The assay can be described thus: two-hybrid.

Assay [4] concerns the target T4, Spp1-TAP (S. cerevisiae (SK1)) (UniProt Q03012).
T4 sequence: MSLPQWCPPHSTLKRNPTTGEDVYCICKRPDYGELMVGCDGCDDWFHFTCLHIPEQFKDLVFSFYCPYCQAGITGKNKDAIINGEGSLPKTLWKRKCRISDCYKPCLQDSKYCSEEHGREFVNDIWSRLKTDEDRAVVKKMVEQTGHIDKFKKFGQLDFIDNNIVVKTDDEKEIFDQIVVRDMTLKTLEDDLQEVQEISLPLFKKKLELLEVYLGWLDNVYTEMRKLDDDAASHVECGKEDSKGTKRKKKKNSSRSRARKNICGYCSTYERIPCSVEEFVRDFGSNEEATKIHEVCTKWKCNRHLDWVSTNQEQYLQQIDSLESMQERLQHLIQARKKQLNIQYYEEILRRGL
The assay can be described thus: co-IP.

For assay [5], the target named is T5, Swd1-HA (S. cerevisiae (SK1)) (UniProt P39706).
T5 sequence: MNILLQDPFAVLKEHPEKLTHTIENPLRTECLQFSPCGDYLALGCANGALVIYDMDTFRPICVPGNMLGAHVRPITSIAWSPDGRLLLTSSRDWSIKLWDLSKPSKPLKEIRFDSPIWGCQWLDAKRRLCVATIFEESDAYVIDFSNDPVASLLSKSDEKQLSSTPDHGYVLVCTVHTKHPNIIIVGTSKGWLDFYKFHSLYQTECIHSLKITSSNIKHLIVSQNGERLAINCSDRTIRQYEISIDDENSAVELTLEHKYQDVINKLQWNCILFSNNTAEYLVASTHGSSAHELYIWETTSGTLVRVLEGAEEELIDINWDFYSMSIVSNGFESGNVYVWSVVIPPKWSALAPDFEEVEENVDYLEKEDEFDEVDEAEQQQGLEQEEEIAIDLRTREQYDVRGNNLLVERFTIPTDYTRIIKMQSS
The experiment in a line: co-IP.

Assay [6] deals with T6, Mer2 V195D (two-hybrid fusion) (S. cerevisiae) (UniProt P21651).
T6 sequence: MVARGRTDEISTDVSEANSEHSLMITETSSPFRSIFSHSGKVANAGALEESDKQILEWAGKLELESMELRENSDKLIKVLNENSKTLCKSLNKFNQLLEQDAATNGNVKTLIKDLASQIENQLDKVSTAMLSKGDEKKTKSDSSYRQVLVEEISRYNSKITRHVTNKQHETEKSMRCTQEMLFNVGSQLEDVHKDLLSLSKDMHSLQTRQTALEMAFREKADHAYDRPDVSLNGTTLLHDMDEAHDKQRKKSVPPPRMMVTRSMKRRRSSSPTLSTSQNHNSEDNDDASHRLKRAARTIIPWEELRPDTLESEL
The experiment in a line: two-hybrid.

Results are given in words; binding and its absence hold for the method and conditions named. For some assays here: In cells and extracts the contact can be indirect. Some entries that bind do so weakly or less than the wild type. Where a sequence is shown, tags or fusion partners need not be part of it.

B1: Spp1 Δ263-266 (two-hybrid fusion) (protein, UniProt Q03012)
chain: MSLPQWCPPHSTLKRNPTTGEDVYCICKRPDYGELMVGCDGCDDWFHFTCLHIPEQFKDLVFSFYCPYCQAGITGKNKDAIINGEGSLPKTLWKRKCRISDCYKPCLQDSKYCSEEHGREFVNDIWSRLKTDEDRAVVKKMVEQTGHIDKFKKFGQLDFIDNNIVVKTDDEKEIFDQIVVRDMTLKTLEDDLQEVQEISLPLFKKKLELLEVYLGWLDNVYTEMRKLDDDAASHVECGKEDSKGTKRKKKKNSSRSRARKNISTYERIPCSVEEFVRDFGSNEEATKIHEVCTKWKCNRHLDWVSTNQEQYLQQIDSLESMQERLQHLIQARKKQLNIQYYEEILRRGL
For the molecule B1, the binding entry in assay [1] is given as “binds”.

B2: Swd1-HA (protein, UniProt P39706 1-426)
chain: MNILLQDPFAVLKEHPEKLTHTIENPLRTECLQFSPCGDYLALGCANGALVIYDMDTFRPICVPGNMLGAHVRPITSIAWSPDGRLLLTSSRDWSIKLWDLSKPSKPLKEIRFDSPIWGCQWLDAKRRLCVATIFEESDAYVIDFSNDPVASLLSKSDEKQLSSTPDHGYVLVCTVHTKHPNIIIVGTSKGWLDFYKFHSLYQTECIHSLKITSSNIKHLIVSQNGERLAINCSDRTIRQYEISIDDENSAVELTLEHKYQDVINKLQWNCILFSNNTAEYLVASTHGSSAHELYIWETTSGTLVRVLEGAEEELIDINWDFYSMSIVSNGFESGNVYVWSVVIPPKWSALAPDFEEVEENVDYLEKEDEFDEVDEAEQQQGLEQEEEIAIDLRTREQYDVRGNNLLVERFTIPTDYTRIIKMQSS
Regarding B2, the binding entry in assay [2] was “no binding”.

B3: Shg1 (two-hybrid fusion) (protein, UniProt P38337 1-142)
chain: MAYNQEDSKRLSDKYKKEGHFDKLKREILSNPWNNTEENSESFEQALRKRVASTVKEMVNEDEELIFKNRGLTSALIESQLVKDNYLKLGSKMEGDNGDGEKKFDLDVYVRSKLQDPKLLEMIKGQLQETLNSYEEEANGST
With B3, the binding entry in assay [3] was “binds”.

B4: Swd2 (two-hybrid fusion) (protein, UniProt P36104 1-329)
chain: MTTVSINKPNLLKFKHVKSFQPQEKDCGPVTSLNFDDNGQFLLTSSSNDTMQLYSATNCKFLDTIASKKYGCHSAIFTHAQNECIYSSTMKNFDIKYLNLETNQYLRYFSGHGALVNDLKMNPVNDTFLSSSYDESVRLWDLKISKPQVIIPSLVPNCIAYDPSGLVFALGNPENFEIGLYNLKKIQEGPFLIIKINDATFSQWNKLEFSNNGKYLLVGSSIGKHLIFDAFTGQQLFELIGTRAFPMREFLDSGSACFTPDGEFVLGTDYDGRIAIWNHSDSISNKVLRPQGFIPCVSHETCPRSIAFNPKYSMFVTADETVDFYVYDE
On to B4, for which the binding result in assay [3] is recorded as “binds”.

B5: Mer2-Flag (protein, UniProt P21651 1-314)
chain: MVARGRTDEISTDVSEANSEHSLMITETSSPFRSIFSHSGKVANAGALEESDKQILEWAGKLELESMELRENSDKLIKVLNENSKTLCKSLNKFNQLLEQDAATNGNVKTLIKDLASQIENQLDKVSTAMLSKGDEKKTKSDSSYRQVLVEEISRYNSKITRHVTNKQHETEKSMRCTQEMLFNVGSQLEDVHKVLLSLSKDMHSLQTRQTALEMAFREKADHAYDRPDVSLNGTTLLHDMDEAHDKQRKKSVPPPRMMVTRSMKRRRSSSPTLSTSQNHNSEDNDDASHRLKRAARTIIPWEELRPDTLESEL
With B5, the figures for the binding entry in assay [4] and in assay [5] were “binds” and “no binding”, respectively.

B6: Mer2_sid-Flag (protein, UniProt P21651 1-314)
chain: MVARGRTDEISTDVSEANSEHSLMITETSSPFRSIFSHSGKVANAGALEESDKQILEWAGKLELESMELRENSDKLIKVLNENSKTLCKSLNKFNQLLEQDAATNGNVKTLIKDLASQIENQLDKVSTAMLSKGDEKKTKSDSSYRQVLVEEISRYNSKITRHVTNKQHETEKSMRCTQEMLFNVGSQLEDVHKDLLSLSKDMHSLQTRQTALEMAFREKADHAYDRPDVSLNGTTLLHDMDEAHDKQRKKSVPPPRMMVTRSMKRRRSSSPTLSTSQNHNSEDNDDASHRLKRAARTIIPWEELRPDTLESEL
Take B6: the binding entry in assay [4] is reported as “no binding”.

B7: Spp1 (two-hybrid fusion) (protein, UniProt Q03012 1-353)
chain: MSLPQWCPPHSTLKRNPTTGEDVYCICKRPDYGELMVGCDGCDDWFHFTCLHIPEQFKDLVFSFYCPYCQAGITGKNKDAIINGEGSLPKTLWKRKCRISDCYKPCLQDSKYCSEEHGREFVNDIWSRLKTDEDRAVVKKMVEQTGHIDKFKKFGQLDFIDNNIVVKTDDEKEIFDQIVVRDMTLKTLEDDLQEVQEISLPLFKKKLELLEVYLGWLDNVYTEMRKLDDDAASHVECGKEDSKGTKRKKKKNSSRSRARKNICGYCSTYERIPCSVEEFVRDFGSNEEATKIHEVCTKWKCNRHLDWVSTNQEQYLQQIDSLESMQERLQHLIQARKKQLNIQYYEEILRRGL
For B7, the binding entry in assay [6] was “no binding”; in assay [3] it was “binds”; in assay [1] it was “binds”.

B8: Spp1-Myc (protein, UniProt Q03012 1-353)
chain: MSLPQWCPPHSTLKRNPTTGEDVYCICKRPDYGELMVGCDGCDDWFHFTCLHIPEQFKDLVFSFYCPYCQAGITGKNKDAIINGEGSLPKTLWKRKCRISDCYKPCLQDSKYCSEEHGREFVNDIWSRLKTDEDRAVVKKMVEQTGHIDKFKKFGQLDFIDNNIVVKTDDEKEIFDQIVVRDMTLKTLEDDLQEVQEISLPLFKKKLELLEVYLGWLDNVYTEMRKLDDDAASHVECGKEDSKGTKRKKKKNSSRSRARKNICGYCSTYERIPCSVEEFVRDFGSNEEATKIHEVCTKWKCNRHLDWVSTNQEQYLQQIDSLESMQERLQHLIQARKKQLNIQYYEEILRRGL
Consider B8, for which the binding entry in assay [2] is given as “binds”.

These data come from paper doi:10.1101/181180.
